Data on one molecule can be found in patent US20090123463A1.

These are yes or no findings as the source states them, for the method shown. A result given as binding can be weak or reduced; the word gives no strength.

For the experiment, the target named is FAT domain of FAK. As to the kind of experiment: phage display.

B1: Peptide-35 (…; SEQ ID NO: 1) (peptide)
peptide: WHWQWTPWSIQP
Consider B1, for which the binding result is “binds”.
